{"source": "paper PMC4626798", "about": "(Scientific Reports, 2015)", "binders": {"B1": {"name": "Hal3 (untagged, entire, co-expressed from pETDuet-1) (natural protein, S. cerevisiae, UniProt P36024 1-562, looked up)", "chain": "MTAVASTSGKQDADHNQSIECPRFSRGQKEILLDHEDAKGKDSIINSPVSGRQSISPTLSNATTTTTKSIMNATGTSGAVVSNTPEPGLKRVPAVTFSDLKQQQKQDSLTQLKNDSERTKSPNSNPAPVSNSIPGNHAVIPNHTNTSRTTQLSGSPLVNEMKDYDPKKKDSALKIVDTMKPDKIMATSTPISRENNKVTAKAPTSITLRKEDAQDQANNVSGQINVRSTPEETPVKQSVIPSIIPKRENSKNLDPRLPQDDGKLHVLFGATGSLSVFKIKPMIKKLEEIYGRDRISIQVILTQSATQFFEQRYTKKIIKSSEKLNKMSQYESTPATPVTPTPGQCNMAQVVELPPHIQLWTDQDEWDAWKQRTDPVLHIELRRWADILVVAPLTANTLSKIALGLCDNLLTSVIRAWNPSYPILLAPSMVSSTFNSMMTKKQLQTIKEEMSWVTVFKPSEKVMDINGDIGLGGMMDWNEIVNKIVMKLGGYPKNNEEEDDDEDEEEDDDEEEDTEDKNENNNDDDDDDDDDDDDDDDDDDDDDDDDEDEDEAETPGIIDKHQ", "notes": "Hal3 (Sis2), S. cerevisiae, the entire Hal3, second MCS of pETDuet-1; also called Sis2; untagged version of Hal3; source: E. coli BL21 (DE3), co-expressed with 6 × His-Ppz1^Cter from pETDuet-1; purified as the complex (Ni2+ IMAC, SEC)"}, "B2": {"name": "Cab3^PD (untagged) (domain or fragment, S. cerevisiae, UniProt P36076 305-508, looked up)", "chain": "DDKKFHILIGATGSVATIKVPLIIDKLFKIYGPEKISIQLIVTKPAEHFLKGLKMSTHVKIWREEDAWVFDAVNKNDTSLSLNLILHHELRKWADIFLIAPLSANTLAKLANGICNNLLTSVMRDWSPLTPVLIAPAMNTFMYINPMTKKHLTSLVQDYPFIQVLKPVEKVLICGDIGMGGMREWTDIVEIVRRRINEIRKARD", "notes": "Cab3 (previously Ykl088w), S. cerevisiae, PPCDC domain (PD), residues 305–508; Expected MW 23.3 kDa; could not be made on its own; also called PPCDC domain of Cab3; Ykl088w PD; source: E. coli BL21 (DE3), co-expressed from the second MCS of pETDuet-1 with 6 × His-Hal3^PD and/or 6 × His-Vhs3^PD; co-purified (Ni2+ IMAC)"}}, "key": {"6 × His-Ppz1^Cter": {"biological_target": "T1, 6 × His-Ppz1^Cter (S. cerevisiae, UniProt P26570 345-692)", "T1 construct": "Ser/Thr protein phosphatase Ppz1, S. cerevisiae, carboxyl terminal domain (Ppz1^Cter, Δ1–344), first MCS of pETDuet-1; also called N-terminally 6 × His-tagged version of Ppz1^Cter; source: E. coli BL21 (DE3), co-expressed with Hal3 from pETDuet-1; purified as the complex (Ni2+ IMAC, SEC); not shown: His6, N-terminal, kept", "T1 sequence (looked up)": "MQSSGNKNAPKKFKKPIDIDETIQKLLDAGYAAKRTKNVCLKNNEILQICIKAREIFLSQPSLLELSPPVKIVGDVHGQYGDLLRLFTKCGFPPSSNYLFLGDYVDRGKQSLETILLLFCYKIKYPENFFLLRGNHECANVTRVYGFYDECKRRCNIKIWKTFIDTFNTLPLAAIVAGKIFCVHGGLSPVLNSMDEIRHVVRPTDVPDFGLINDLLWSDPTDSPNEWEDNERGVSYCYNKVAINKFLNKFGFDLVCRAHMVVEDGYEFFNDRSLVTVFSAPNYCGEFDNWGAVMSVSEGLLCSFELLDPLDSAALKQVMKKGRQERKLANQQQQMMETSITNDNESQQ", "assay": "co-purification by Ni2+ IMAC after co-expression; 6 × His-Ppz1^Cter and untagged Hal3 co-expressed in E. coli from pETDuet-1; His-Trap column, 50 mM Tris-HCl pH 7.5, 300 mM NaCl, washes up to 80 mM imidazole, elution 500 mM imidazole"}, "6 × His-Vhs3^PD [1]": {"biological_target": "T2, 6 × His-Vhs3^PD (S. cerevisiae, UniProt Q08438 288-577)", "T2 construct": "Vhs3, S. cerevisiae, PPCDC domain (PD), residues 288–577; Expected MW with tag 34.5 kDa; also called PPCDC domain of Vhs3; source: E. coli BL21 (DE3), purified (Ni2+ IMAC); alone from pET28a or co-expressed with Cab3^PD (pETDuet-1); not shown: His6, N-terminal, kept", "T2 sequence (looked up)": "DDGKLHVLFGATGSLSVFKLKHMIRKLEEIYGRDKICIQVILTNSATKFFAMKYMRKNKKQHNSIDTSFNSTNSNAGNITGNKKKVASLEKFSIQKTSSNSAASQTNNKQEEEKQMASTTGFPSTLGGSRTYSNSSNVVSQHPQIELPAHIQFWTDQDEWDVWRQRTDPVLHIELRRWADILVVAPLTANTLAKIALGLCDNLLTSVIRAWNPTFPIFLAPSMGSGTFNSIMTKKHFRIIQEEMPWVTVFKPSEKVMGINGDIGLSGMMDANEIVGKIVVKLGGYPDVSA", "assay": "co-purification by Ni2+ IMAC after co-expression; untagged Cab3^PD co-expressed in E. coli with 6 × His-tagged Hal3^PD and/or Vhs3^PD (binary and ternary mixtures); Ni2+ IMAC, SDS-PAGE and densitometry"}, "6 × His-Vhs3^PD [2]": {"biological_target": "T2, 6 × His-Vhs3^PD", "assay": "SEC; purified PD proteins and co-purified mixtures on Superose 12, 50 mM phosphate pH 7.0, 150 mM NaCl, 0.4 mL/min; both purified"}}, "note": "Results are given in words; binding and its absence hold for the method and conditions named. Some entries that bind do so weakly or less than the wild type. Sequences can lack the tags named with a protein."}
{"binder": "B1", "values": [{"measurement": "binding", "setting": "6 × His-Ppz1^Cter", "result": "binds"}]}
{"binder": "B2", "values": [{"measurement": "binding", "setting": "6 × His-Vhs3^PD [1]", "result": "binds"}, {"measurement": "binding", "setting": "6 × His-Vhs3^PD [2]", "result": "binds"}]}
